This passage reports binding results from patent US6617430.

Chains of the proteins cited; added tags and fusions are not shown. Lines headed by an entry give the natural chain unless they say otherwise; changes in a name come on top.
UniProt P04386: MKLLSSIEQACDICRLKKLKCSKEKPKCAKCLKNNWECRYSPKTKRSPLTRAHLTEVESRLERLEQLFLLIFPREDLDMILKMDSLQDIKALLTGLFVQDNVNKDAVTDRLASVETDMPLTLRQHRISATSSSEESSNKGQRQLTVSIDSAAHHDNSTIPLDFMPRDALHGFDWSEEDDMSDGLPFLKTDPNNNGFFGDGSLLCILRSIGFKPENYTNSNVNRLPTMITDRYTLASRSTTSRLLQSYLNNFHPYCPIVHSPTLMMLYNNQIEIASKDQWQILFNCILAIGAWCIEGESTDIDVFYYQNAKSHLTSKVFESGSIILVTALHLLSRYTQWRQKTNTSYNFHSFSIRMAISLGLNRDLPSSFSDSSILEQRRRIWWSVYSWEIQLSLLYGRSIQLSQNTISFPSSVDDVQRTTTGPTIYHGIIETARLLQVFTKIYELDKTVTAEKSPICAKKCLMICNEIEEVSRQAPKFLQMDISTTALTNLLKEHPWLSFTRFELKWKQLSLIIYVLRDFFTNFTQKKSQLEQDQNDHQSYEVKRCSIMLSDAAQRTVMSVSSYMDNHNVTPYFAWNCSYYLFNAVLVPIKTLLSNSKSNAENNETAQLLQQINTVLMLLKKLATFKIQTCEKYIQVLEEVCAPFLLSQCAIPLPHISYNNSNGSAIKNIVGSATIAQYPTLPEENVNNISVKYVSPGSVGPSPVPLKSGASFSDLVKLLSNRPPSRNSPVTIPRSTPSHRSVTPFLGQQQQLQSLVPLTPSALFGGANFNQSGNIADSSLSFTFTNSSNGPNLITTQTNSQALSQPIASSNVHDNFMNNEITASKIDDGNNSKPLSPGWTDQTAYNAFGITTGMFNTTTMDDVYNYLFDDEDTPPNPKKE
UniProt Q99700: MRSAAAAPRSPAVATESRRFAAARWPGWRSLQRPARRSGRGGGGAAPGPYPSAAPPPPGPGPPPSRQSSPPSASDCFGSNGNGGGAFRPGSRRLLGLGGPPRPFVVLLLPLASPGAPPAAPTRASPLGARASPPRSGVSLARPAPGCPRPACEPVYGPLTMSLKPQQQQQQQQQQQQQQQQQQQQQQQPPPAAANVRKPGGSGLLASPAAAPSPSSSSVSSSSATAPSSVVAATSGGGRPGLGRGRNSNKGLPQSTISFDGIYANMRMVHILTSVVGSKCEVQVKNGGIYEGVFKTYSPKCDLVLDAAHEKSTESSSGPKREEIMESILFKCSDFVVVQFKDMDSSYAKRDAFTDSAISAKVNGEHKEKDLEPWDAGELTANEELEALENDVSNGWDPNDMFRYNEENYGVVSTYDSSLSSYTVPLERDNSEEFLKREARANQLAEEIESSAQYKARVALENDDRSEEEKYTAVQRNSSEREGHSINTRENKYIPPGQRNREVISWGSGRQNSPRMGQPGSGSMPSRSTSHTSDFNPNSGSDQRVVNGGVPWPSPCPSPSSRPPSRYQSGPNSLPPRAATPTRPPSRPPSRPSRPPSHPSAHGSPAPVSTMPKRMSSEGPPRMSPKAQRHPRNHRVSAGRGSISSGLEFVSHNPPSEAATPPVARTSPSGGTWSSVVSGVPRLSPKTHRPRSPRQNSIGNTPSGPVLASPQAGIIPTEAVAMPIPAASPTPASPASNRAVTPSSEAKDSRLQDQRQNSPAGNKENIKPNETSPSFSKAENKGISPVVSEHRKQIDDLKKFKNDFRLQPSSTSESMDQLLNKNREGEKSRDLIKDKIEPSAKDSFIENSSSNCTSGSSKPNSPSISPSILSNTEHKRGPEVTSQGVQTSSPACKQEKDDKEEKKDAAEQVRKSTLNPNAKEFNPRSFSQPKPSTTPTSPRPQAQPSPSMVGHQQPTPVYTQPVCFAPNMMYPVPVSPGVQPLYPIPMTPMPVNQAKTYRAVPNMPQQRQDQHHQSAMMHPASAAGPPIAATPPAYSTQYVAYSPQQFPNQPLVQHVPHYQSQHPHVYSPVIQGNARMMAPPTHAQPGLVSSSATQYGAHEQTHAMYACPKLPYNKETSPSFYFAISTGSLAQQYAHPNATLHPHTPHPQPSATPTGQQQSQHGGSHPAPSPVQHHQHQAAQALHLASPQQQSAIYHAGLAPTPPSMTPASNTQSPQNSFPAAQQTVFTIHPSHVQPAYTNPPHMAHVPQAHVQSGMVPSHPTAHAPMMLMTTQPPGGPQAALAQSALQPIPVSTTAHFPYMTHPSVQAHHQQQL

No constants are given. Whether binding was seen depends on the method and setting. For part of these data: Binding seen in cells or lysates may run through a third protein. Some binding calls cover weakened binding; strength is not graded here. For part of these data: Sequences can lack the tags named with a protein.

For assay [1], the target named is full-length normal ataxin-2 containing 22 poly-glutamine residues, GAL4 binding domain fusion (human) (UniProt P04386+Q99700). Description: yeast two-hybrid, beta-gal filter assay.
Assay [2] has as its target C-terminal region of ataxin-2 protein (amino acids 811-1312) fused to the binding domain of GAL4 (human) (UniProt P04386+Q99700). Description: yeast two-hybrid screen, beta-galactosidase filter assay.
The target in assay [3] is endogenous ataxin-2 of HTB10 cells (human) (UniProt Q99700). As to the kind of experiment: co-immunoprecipitation from HTB10 cell lysate with anti-A2BP antibody 1734-2, Western blot with anti-SCA2B. In general terms: A western blot detects proteins with antibodies after separation by electrophoresis.

B1: ataxin-2 binding protein (A2BP), GAL4 activation domain fusion from the pGAD10 human adult brain cDNA library clone (protein, not shown: large carriers)
chain: MNCEREQLRGNQEAAAAPDTMAQPYASAQFAPPQNGIPAEYTAPHPHPAPEYTGQTTVPEHTLNLYPPAQTHSEQSPADTSAQTVSGTATQTDDAAPTDGQPQTQPSENTENKSQPKRLHVSNIPFRFRDPDLRQMFGQFGKILDVEIIFNERGSKGFGFVTFENSADADRAREKLHGTVVEGRKIEVNNATARVMTNKKTVNPYTNGWKLNPVVGAVYSPEFYAGTVLLCQANQEGSSMYSAPSSLVYTSAMPGFPYPAATAAAAYRGAHLRGRGRTVYNTFRAAAPPPPIPAYGGVVYPGWILWCRHLWWLCCIPLRPAYPCHCRCLQ
For B1, the binding result in assay [1] and in assay [2] was “binds” each time.

B2: endogenous ataxin-2 binding protein (A2BP) of HTB10 cells (protein)
chain: MNCEREQLRGNQEAAAAPDTMAQPYASAQFAPPQNGIPAEYTAPHPHPAPEYTGQTTVPEHTLNLYPPAQTHSEQSPADTSAQTVSGTATQTDDAAPTDGQPQTQPSENTENKSQPKRLHVSNIPFRFRDPDLRQMFGQFGKILDVEIIFNERGSKGFGFVTFENSADADRAREKLHGTVVEGRKIEVNNATARVMTNKKTVNPYTNGWKLNPVVGAVYSPEFYAGTVLLCQANQEGSSMYSAPSSLVYTSAMPGFPYPAATAAAAYRGAHLRGRGRTVYNTFRAAAPPPPIPAYGGVVYPGWILWCRHLWWLCCIPLRPAYPCHCRCLQ
For the molecule B2, the binding result in assay [3] is on record as “binds”.
